Experimental data from the supplement of paper PMC10849652.
Some of the results follow.

By UniProt entry, the sequences of proteins in these tests, tags left out.
UniProt Q13216, whole entry, looked up: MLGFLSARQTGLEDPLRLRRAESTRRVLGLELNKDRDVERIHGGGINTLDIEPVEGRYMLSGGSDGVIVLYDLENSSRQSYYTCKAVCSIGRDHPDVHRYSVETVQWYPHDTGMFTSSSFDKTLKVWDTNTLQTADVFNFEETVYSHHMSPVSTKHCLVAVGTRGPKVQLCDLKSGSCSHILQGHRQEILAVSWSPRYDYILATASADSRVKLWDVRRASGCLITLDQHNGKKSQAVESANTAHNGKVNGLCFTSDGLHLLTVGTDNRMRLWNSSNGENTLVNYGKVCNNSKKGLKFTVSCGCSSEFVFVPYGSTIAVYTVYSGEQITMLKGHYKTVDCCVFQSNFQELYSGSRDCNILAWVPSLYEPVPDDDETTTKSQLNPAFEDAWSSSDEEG
UniProt Q9H2F5, whole entry, looked up: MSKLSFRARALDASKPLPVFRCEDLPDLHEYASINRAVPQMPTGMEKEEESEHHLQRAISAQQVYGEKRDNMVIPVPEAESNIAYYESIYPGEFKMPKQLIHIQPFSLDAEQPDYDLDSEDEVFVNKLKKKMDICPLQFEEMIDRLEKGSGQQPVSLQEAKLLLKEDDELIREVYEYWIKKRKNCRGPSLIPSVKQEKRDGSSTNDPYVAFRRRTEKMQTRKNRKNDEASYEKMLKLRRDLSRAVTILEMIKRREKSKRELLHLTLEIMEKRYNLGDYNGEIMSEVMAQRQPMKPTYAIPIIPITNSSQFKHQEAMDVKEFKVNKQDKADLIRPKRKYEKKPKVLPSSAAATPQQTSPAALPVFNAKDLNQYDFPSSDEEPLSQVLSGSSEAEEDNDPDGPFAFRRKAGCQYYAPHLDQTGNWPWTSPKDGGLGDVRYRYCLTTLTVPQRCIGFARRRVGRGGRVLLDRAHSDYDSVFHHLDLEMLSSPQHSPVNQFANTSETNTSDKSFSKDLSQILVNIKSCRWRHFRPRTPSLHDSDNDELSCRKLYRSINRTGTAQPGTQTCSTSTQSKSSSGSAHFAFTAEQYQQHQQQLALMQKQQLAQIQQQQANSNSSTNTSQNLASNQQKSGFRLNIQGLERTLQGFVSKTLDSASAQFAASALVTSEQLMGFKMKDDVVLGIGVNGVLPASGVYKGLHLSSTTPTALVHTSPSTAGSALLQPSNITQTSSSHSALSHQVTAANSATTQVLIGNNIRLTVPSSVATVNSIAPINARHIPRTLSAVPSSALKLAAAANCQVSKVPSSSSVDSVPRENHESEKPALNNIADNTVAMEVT

Key:
Assay in all cases: log2 fold change, soluble protein after heating vs DMSO (PISA); higher = thermal stabilisation; K562 lysate, 10 uM; active = over 0.2 and 3.5 SD of the protein, either way, in both replicates (recomputed)
[1] = compound: CCCS(=O)(=O)Nc1ccc(F)c(C(=O)c2c[nH]c3ncc(Cl)cc23)c1F
How it was run: (§1)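 Log-two fold change in thermal stability relative to solvent controls is reported from duplicates. For each sample, crude K562 extract from dounce-homogenised pellets in PBS pH 7.4 with 1 mM MgCl2, at 1 mg/mL protein, was treated with 10 μM compound for 30 min. Aliquots heated for 3 min across 48°C-58°C were pooled, brought to 0.5% NP-40 at 4°C and cleared at 21,000xg for 90 min. The supernatant was quantified by TMTpro 16plex LC-MS/MS with channel sums equalised.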

barasertib = compound: CCN(CCCOc1ccc2c(Nc3cc(CC(=O)Nc4cccc(F)c4)[nH]n3)ncnc2c1)CCOP(=O)(O)O [barasertib]
How it was run: as §1

volasertib = compound: CC[C@@H]1C(=O)N(C)c2cnc(Nc3ccc(C(=O)N[C@H]4CC[C@H](N5CCN(CC6CC6)CC5)CC4)cc3OC)nc2N1C(C)C [volasertib]
How it was run: as §1

[2] = compound: CCn1c(C(=O)N(C2CC2)C2CC2)cc2c3c(ncn3C)c(Nc3cc(C)n(C)n3)nc21
How it was run: as §1

[3] = compound: CCn1cc(-c2ccnc3[nH]c(-c4cccc(CN(C)C)c4)cc23)c(-c2ccc(NC(=O)N(C)C)cc2)n1
How it was run: as §1

[4] = compound: CN1CCC(CNc2ccc3ncc(-c4cccc(OC(F)(F)F)c4)n3n2)CC1
How it was run: as §1

saracatinib = compound: CN1CCN(CCOc2cc(OC3CCOCC3)c3c(Nc4c(Cl)ccc5c4OCO5)ncnc3c2)CC1 [saracatinib]
How it was run: as §1

sotrastaurin = compound: CN1CCN(c2nc(C3=C(c4c[nH]c5ccccc45)C(=O)NC3=O)c3ccccc3n2)CC1 [sotrastaurin]
How it was run: as §1

alvocidib = compound: CN1CC[C@H](c2c(O)cc(O)c3c(=O)cc(-c4ccccc4Cl)oc23)[C@H](O)C1 [alvocidib]
How it was run: as §1

Tubastatin A = compound: CN1CCc2c(c3ccccc3n2Cc2ccc(C(=O)NO)cc2)C1 [Tubastatin A]
How it was run: as §1

[5] = compound: CNC(=O)C1=CC=CC=C1NC2=NC(=NC=C2Cl)NC3=C(C=C(C=C3)N4CCOCC4)OC
How it was run: as §1

[6] = compound: CNc1nc(-c2ccc3c(N)n[nH]c3c2)cc(N2C[C@@H](C(=O)NC3CCCCC3)CC[C@H]2C)n1
How it was run: as §1

[7] = compound: COc1cc2nc(-c3cc(F)ccc3O)nc(N[C@@H]3CNC[C@H]3C(C)(C)O)c2cc1OC
How it was run: as §1

alisertib = compound: COc1cc(Nc2ncc3c(n2)-c2ccc(Cl)cc2C(c2c(F)cccc2OC)=NC3)ccc1C(=O)O [alisertib]
How it was run: as §1

gefitinib = compound: COc1cc2ncnc(Nc3ccc(F)c(Cl)c3)c2cc1OCCCN1CCOCC1 [gefitinib]
How it was run: as §1

Measured: log2 fold change

ELOF1 (UniProt P60002)
inactive: [1] 0.016 | barasertib 0.036 | volasertib 0.05 | [2] -0.207 | [3] 0.117 | [4] 0.064 | saracatinib 0.109 | sotrastaurin -0.429 | alvocidib -0.055 | Tubastatin A 0.131 | [5] -0.045 | [6] 0.023 | [7] -0.013

ERCC8 (UniProt Q13216)
inactive: [1] 0.019 | barasertib 0.05 | volasertib -0.061 | [3] -0.03 | [4] 0.085 | sotrastaurin 0.06 | alvocidib -0.009 | alisertib 0.053 | [7] 0.031 | gefitinib -0.05

EPC1 (UniProt Q9H2F5)
inactive: barasertib 0.026 | [3] -0.226 | [4] -0.014 | sotrastaurin 0.192 | alvocidib 0.224
